We go through 68 molecules from the supplement of paper PMC5711842.

For the assay, the system named is Danio rerio embryo. The assay can be described thus: lowest lethal concentration (of 2, 10, 50 µM tested), 10-36 hpf treatment; higher = less toxic. The settings on record: treatment window: 10-36 hpf.

Single values of this set are uncertain. Peptide text beside a SMILES is read from it. * marks the point of attachment. Cbz = O=C(OCc1ccccc1)*

`CC#C[C@]1(O)CC[C@H]2[C@@H]3CCC4=CC(=O)CCC4=C3[C@@H](c3ccc(N(C)C)cc3)C[C@@]21C` [Mifepristone] had a lowest lethal concentration above 50 µM.

The molecule `CSCC[C@H](NC(=O)[C@H](Cc1ccccc1)NC[C@@H](NC[C@@H](N)CS)C(C)C)C(=O)O` [B581] had a lowest lethal concentration above 50 µM.

The molecule `Cc1cc([N+](=O)[O-])ccc1NS(=O)(=O)c1cc(Cl)ccc1Cl` [FH535] returned a lowest lethal concentration of 10 µM.

In the case of `CC(C)C[C@@H](C=O)NC(=O)[C@H](CC(C)C)NC(=O)[C@H](CC(C)C)NC(=O)OCc1ccccc1` [MG-132] (Cbz-Leu-Leu-Leu-aldehyde), the lowest lethal concentration was above 50 µM.

The molecule `O=c1cc(N2CCOCC2)nc2c3ccccc3ccn12` [Compound 401] showed a lowest lethal concentration above 50 µM.

Consider `C=C1O[C@@](CO)(n2cnc3c(N)ncnc32)[C@H](O)[C@@H]1O` [Decoyinine], for which the lowest lethal concentration is above 50 µM.

For the molecule `Ic1cccc(CSc2nnc(-c3ccncc3)o2)c1` [GSK-3 Inhibitor II], the lowest lethal concentration is above 50 µM.

`CC(=O)O/N=C1\C(=O)N(Cc2cc(Cl)ccc2Cl)c2ccc(Cl)cc21`: the lowest lethal concentration was above 50 µM.

`O=C(O)c1ccc(-c2c3nc(c(-c4ccc(C(=O)O)cc4)c4ccc([n-]4)c(-c4ccc(C(=O)O)cc4)c4nc(c(-c5ccc(C(=O)O)cc5)c5ccc2[n-]5)C=C4)C=C3)cc1.[Cl-].[Mn+3]` [Mntbap]: the lowest lethal concentration is above 50 µM.

`Nc1c(S(=O)(=O)O)cc(S(=O)(=O)O)c2cccc(O)c12` [CaMKP Inhibitor] came in with a lowest lethal concentration above 50 µM.

In turn, `CN(C(Cc1ccc(OS(=O)(=O)c2cccc3cnccc23)cc1)C(=O)N1CCN(c2ccccc2)CC1)S(=O)(=O)c1cccc2cnccc12` (stereo not drawn) [KN-62] had a lowest lethal concentration above 50 µM.

The molecule `COCc1nc2c([nH]1)c(=O)n(C)c(=O)n2CC(C)C` [IBMX] registered a lowest lethal concentration above 50 µM.

`CC(C)(C)n1nc(-c2ccc(Cl)cc2)c2c(N)ncnc21` [PP2] yielded a lowest lethal concentration above 50 µM.

`O=C1Nc2ccc(I)cc2/C1=C/c1cc(Br)c(O)c(Br)c1` [GW-5074] showed a lowest lethal concentration above 50 µM.

Molecule `N#Cc1cnc2cnc(NCc3cccnc3)cc2c1Nc1ccc(F)c(Cl)c1` [Tpl2 Kinase Inhibitor] came in with a lowest lethal concentration above 50 µM.

The molecule `C/C=C1\C(=O)C[C@H]2[C@@H]3CCC4=CC(=O)CC[C@]4(C)[C@H]3CC[C@]12C` [Z-Guggulsterone] registered a lowest lethal concentration above 50 µM.

For `O=Cc1c2[nH]c3ccccc3c2cc2[nH]c3ccccc3c12` [FICZ], the lowest lethal concentration is above 50 µM.

The molecule `CNC1CCC(N(Cc2cccc(-c3ccncc3)c2)C(=O)c2sc3ccccc3c2Cl)CC1` (stereo not drawn) [Smoothened Agonist, SAG] returned a lowest lethal concentration above 50 µM.

As to `Cc1nnsc1C(=O)Nc1ccc(-n2nc(C(F)(F)F)cc2C(F)(F)F)cc1` [Btp2], the lowest lethal concentration was above 50 µM.

As to `CCC(=O)Nc1ccc2ncnc(Nc3cccc(Br)c3)c2c1`, the lowest lethal concentration is above 50 µM.

With `COc1cc(-c2ccc(=O)[nH]n2)ccc1OC(F)F` [Zardaverine], the lowest lethal concentration is above 50 µM.

For the molecule `COc1cc2c3cc1Oc1c(OC)c(OC)cc4c1[C@@H](Cc1ccc(OC(=O)c5ccc([N+](=O)[O-])cc5)c(c1)Oc1ccc(cc1)C[C@@H]3N(C)CC2)N(C)CC4` [E6 Berbamine], the lowest lethal concentration was above 50 µM.

For `C[S+]([O-])c1ccc(-c2nc(-c3ccc(F)cc3)c(-c3ccncc3)[nH]2)cc1` (stereo not drawn), the lowest lethal concentration is above 50 µM.

Take `O=C1Nc2ccc3ncsc3c2/C1=C/c1cnc[nH]1` [PKR Inhibitor]: the lowest lethal concentration came to 50 µM.

In turn, `CCCC[C@@H](C)/C=C(C)/C=C(\C)C(=O)NC1=C[C@@](O)(/C=C/C=C/C=C/C(=O)NC2=C(O)CCC2=O)[C@@H]2O[C@@H]2C1=O` [Manumycin A] had a lowest lethal concentration of 50 µM.

For `CC(=O)OCOC(c1ccc2ccccc2c1)P(=O)(OCOC(C)=O)OCOC(C)=O` (stereo not drawn) [HNMPA-(AM)3], the lowest lethal concentration was above 50 µM.

With `COc1nc(-c2ccc3c(c2)OCO3)n(-c2ccc(NC(=O)CSc3ccccc3)cc2)n1` [SecinH3], the lowest lethal concentration is above 50 µM.

The molecule `O=C1CCCC(=O)C1CC1C(=O)CCCC1=O` [Apoptosis Inhibitor] returned a lowest lethal concentration of 50 µM.

As to `c1ccc(-c2n[nH]c3c2oc2ccccc23)cc1`, the lowest lethal concentration is above 50 µM.

For the molecule `O=C(Nc1ccc(Cl)cc1)c1ccccc1NCc1ccncc1` [VEGF Receptor Tyrosine Kinase Inhibitor II], the lowest lethal concentration was above 50 µM.

`O=Nc1c(-c2c(O)[nH]c3cc(Br)ccc23)[nH]c2ccccc12` [BIO] yielded a lowest lethal concentration above 50 µM.

The molecule `CCc1ccc(S(=O)(=O)c2ccccc2)cc1S(=O)(=O)NCCCN(C)C` [sFRP-1 Inhibitor] returned a lowest lethal concentration above 50 µM.

As to `C=C1[C@@H](O)[C@@H]2O[C@]3(CC[C@H](/C=C/[C@@H](C)[C@@H]4CC(C)=C[C@@]5(O[C@H](C[C@@](C)(O)C(=O)O)CC[C@H]5O)O4)O3)CC[C@H]2O[C@@H]1[C@@H](O)C[C@H](C)[C@H]1O[C@@]2(CCCCO2)CC[C@H]1C` [Okadaic acid], the lowest lethal concentration was above 50 µM.

Molecule `Nc1ncnc2c1ncn2C1CCCO1` (stereo not drawn) registered a lowest lethal concentration above 50 µM.

In turn, `Cn1cnc2cc3c(Nc4cccc(Br)c4)ncnc3cc21` [BPIQ-I] returned a lowest lethal concentration of 10 µM.

`O=C1NC(=O)/C(=C\c2cccc(C(F)(F)F)c2)S1` [TCS-PIM-1-4a] displayed a lowest lethal concentration of 50 µM.

`O=c1[nH]c2ccccc2n1C1CCN(CCCC(c2ccc(F)cc2)c2ccc(F)cc2)CC1` [Pimozide] returned a lowest lethal concentration above 50 µM.

The molecule `C[C@@H](NC(=O)c1cc(C(=O)N[C@@H](Cc2ccccc2)[C@H](O)CNC2CC2)cc(N(C)S(C)(=O)=O)c1)c1ccccc1` [BACE-1 Inhibitor] showed a lowest lethal concentration above 50 µM.

The molecule `Cc1ccc(-c2cn3c4c(sc3n2)CCCC4)cc1` [QB102] came in with a lowest lethal concentration of 50 µM.

For `O=C(O)/C=C/c1cc(Br)c(Br)c(Br)c1Br` [TBCA], the lowest lethal concentration is above 50 µM.

Consider `COc1cc(OC)cc(-c2cc3cnc(N)nc3nc2NC(=O)NC(C)(C)C)c1`, for which the lowest lethal concentration was above 50 µM.

The molecule `O=C1NC(=O)c2c1c(-c1ccccc1Cl)cc1[nH]c3ccc(O)cc3c21` [Wee1 Inhibitor] yielded a lowest lethal concentration above 50 µM.

In turn, `CC(C)CC[C@@H](O)[C@](C)(O)[C@H]1CC[C@@]2(O)C3=CC(=O)[C@]4(O)C[C@@H](O)[C@@H](O)C[C@]4(C)[C@H]3[C@H](O)C[C@]12C` [Muristerone A] registered a lowest lethal concentration above 50 µM.

For `Nc1ncnc2nc(-c3ccc(N4CCOCC4)nc3)cc(-c3cccc(Br)c3)c12` [Adenosine Kinase Inhibitor], the lowest lethal concentration was above 50 µM.

`COc1ccc(C2=N[C@@H](c3ccc(Cl)cc3)[C@@H](c3ccc(Cl)cc3)N2C(=O)N2CCNC(=O)C2)c(OC(C)C)c1` [Nutlin-3] showed a lowest lethal concentration above 50 µM.

In the case of `Cc1ccc(NCCCc2ccccc2)c(N)c1` [JSH-23], the lowest lethal concentration was above 50 µM.

`CCCCCCCCCCCCCC(=O)O[C@@H]1[C@@H](C)[C@@]2(O)[C@@H](C=C(CO)C[C@]3(O)C(=O)C(C)=C[C@@H]23)[C@@H]2C(C)(C)[C@]12OC(C)=O` [Phorbol 12-myristate 13-acetate] displayed a lowest lethal concentration of 10 µM.

Regarding `Oc1ccc(Nc2nc(-c3ccc(Cl)cc3)cs2)cc1` [Sphingosine Kinase Inhibitor], the lowest lethal concentration is above 50 µM.

With `CCN(CC)CCCCN1c2ccccc2Oc2ccc(Cl)cc21` [Akt Inhibitor X], the lowest lethal concentration is above 50 µM.

As to `CC1(C)C(C=C(Cl)Cl)C1C(=O)OC(C#N)c1cccc(Oc2ccccc2)c1` (stereo not drawn) [Cypermethrin], the lowest lethal concentration was above 50 µM.

Molecule `CC(C)(C)c1cc(C=C(C#N)C(N)=S)cc(C(C)(C)C)c1O` [AG 879] showed a lowest lethal concentration of 10 µM.

For the molecule `O=C(c1ccc(Nc2nccc(-c3cc4ccccc4s3)n2)cc1)N1CCC(N2CCCC2)CC1` [IKK Inhibitor VII], the lowest lethal concentration is above 50 µM.

`Nc1ccc(C(=O)Nc2cccc(-c3nc(N4CCOCC4)c4oc5ncccc5c4n3)c2)cn1` showed a lowest lethal concentration above 50 µM.

`O=c1[nH]c2ccccc2n1C1CCN(Cc2ccc(-c3[nH]c4cc5ncnc5cc4nc3-c3ccccc3)cc2)CC1` [Akt inhibitor VIII] had a lowest lethal concentration above 50 µM.

For `O=C(Nc1cccc(Nc2nccc(Nc3cccc(C(F)(F)F)c3)n2)c1)C1CC1` [Aurora Kinase Inhibitor III], the lowest lethal concentration is above 50 µM.

Turning to `CC1(C)[C@H]2CC[C@](C)(C2)[C@H]1NS(=O)(=O)c1ccc(F)cc1` [gamma-Secretase Inhibitor VI], the lowest lethal concentration is above 50 µM.

As for `Nc1c(C(=O)c2ccccc2)sc2[nH]c(=O)c(C(=O)O)cc12`, the lowest lethal concentration was above 50 µM.

With `Cc1c(C)c2c(c(C)c1O)CCC(C)(C(=O)O)O2` (stereo not drawn) [Trolox], the lowest lethal concentration is above 50 µM.

On to `O=C1NCCc2[nH]c(-c3ccnc(-c4cnc5ccccc5c4)c3)cc21` [MK-2 Inhibitor III], for which the lowest lethal concentration was above 50 µM.

`COc1cccc(-c2cc(NCc3ccc4c(c3)OCO4)nc(N)n2)c1` [Wnt Agonist] gave a lowest lethal concentration of 2 µM.

`NC(=O)[C@H]1CCCCc2c1[nH]c1ccc(Cl)cc21` [Compound (S)-35]: the lowest lethal concentration was above 50 µM.

`C[C@H](NC(=O)Cc1cc(F)cc(F)c1)C(=O)N[C@H]1N=C(c2ccccc2)c2ccccc2N(C)C1=O` [Compound E] registered a lowest lethal concentration above 50 µM.

Consider `CCCC[C@@H](C=O)NC(=O)[C@H](CC(C)C)NC(=O)OCc1ccccc1` [Calpeptin], for which the lowest lethal concentration was above 50 µM.

Regarding `COc1cc2ncnc(Nc3ccc(Oc4ccccc4)cc3)c2cc1OC` [Src Kinase Inhibitor I], the lowest lethal concentration was above 50 µM.

Molecule `CC(=N)NCc1cccc(CN)c1` [1400W] yielded a lowest lethal concentration above 50 µM.

`CC(C(=O)Nc1cccc(/N=C/c2c(O)ccc3ccccc23)c1)c1ccccc1` (stereo not drawn) [Salermide] returned a lowest lethal concentration above 50 µM.

For `N/C(=N\C(=O)c1nc(Cl)c(N)nc1N)NCc1ccccc1` [Benzamil], the lowest lethal concentration is above 50 µM.

With `O=C1OC2(c3ccccc31)c1ccc(O)c(O)c1Oc1c2ccc(O)c1O` [Gallein], the lowest lethal concentration is above 50 µM.
